Laboratory results published in US20070049521A1.
Results are given in words; binding and its absence hold for the method and conditions named. Some results given as binding are weak or reduced against the parent protein; the word gives no strength. For some of these results: Sequences can lack the tags named with a protein.

How the values were obtained:
[1] = molecular target: T1, NPR-C on ATDC5 cells (mouse chondrogenic cell line) (mouse) (UniProt P70180); test: displacement of 125I-Ostn[83-133] from ATDC5 cells by cold peptide and C-ANF
T1 sequence (looked up): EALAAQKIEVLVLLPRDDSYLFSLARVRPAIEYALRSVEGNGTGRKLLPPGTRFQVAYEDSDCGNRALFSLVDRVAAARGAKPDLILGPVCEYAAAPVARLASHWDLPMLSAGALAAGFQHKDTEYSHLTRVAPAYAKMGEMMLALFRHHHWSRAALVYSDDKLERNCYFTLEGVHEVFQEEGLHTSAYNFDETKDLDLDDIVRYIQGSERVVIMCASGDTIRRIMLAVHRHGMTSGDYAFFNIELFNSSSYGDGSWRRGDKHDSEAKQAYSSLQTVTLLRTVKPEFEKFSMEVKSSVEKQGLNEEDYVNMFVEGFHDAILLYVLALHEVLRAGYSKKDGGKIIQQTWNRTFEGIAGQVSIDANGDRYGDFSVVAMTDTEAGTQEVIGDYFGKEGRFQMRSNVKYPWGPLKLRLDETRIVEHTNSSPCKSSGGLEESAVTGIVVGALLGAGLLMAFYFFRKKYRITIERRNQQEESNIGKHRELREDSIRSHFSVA

[2] = molecular target: T2, human NPR-C (natriuretic peptide receptor C, clearance receptor), overexpressed on HEK293 cells (human) (UniProt P17342); test: PLAP activity bound to NPR-C-transfected HEK293 cells
T2 sequence (looked up): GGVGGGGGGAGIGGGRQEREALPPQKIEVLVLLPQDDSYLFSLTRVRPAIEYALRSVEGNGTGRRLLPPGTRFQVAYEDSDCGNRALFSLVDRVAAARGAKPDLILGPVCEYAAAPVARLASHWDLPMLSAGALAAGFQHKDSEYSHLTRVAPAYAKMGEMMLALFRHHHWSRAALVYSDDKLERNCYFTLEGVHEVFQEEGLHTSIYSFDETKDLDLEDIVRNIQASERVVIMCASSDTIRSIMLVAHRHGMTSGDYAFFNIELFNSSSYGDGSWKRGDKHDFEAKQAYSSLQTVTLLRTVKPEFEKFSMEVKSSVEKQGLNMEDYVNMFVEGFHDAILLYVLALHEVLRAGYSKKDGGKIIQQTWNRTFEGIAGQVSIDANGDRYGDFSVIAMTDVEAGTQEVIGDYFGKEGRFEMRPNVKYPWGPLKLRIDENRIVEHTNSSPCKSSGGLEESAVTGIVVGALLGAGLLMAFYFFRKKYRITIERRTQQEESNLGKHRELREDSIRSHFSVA

[3] = molecular target: T2, human NPR-C (natriuretic peptide receptor C, clearance receptor), overexpressed on HEK293 cells (human); test: PLAP activity bound to transfected HEK293 cells (summary of the experiment)
[4] = molecular target: T2, human NPR-C (natriuretic peptide receptor C, clearance receptor), overexpressed on HEK293 cells (human); test: competition of PLAP-Ostn binding to NPR-C (summary of the experiment)

B1: human Ostn[83-133] (cold) (peptide)
peptide: SFSGFGSPLDRLSAGSVDHKGKQRKVVDHPKRRFGIPMDRIGRNRLSNSRG
Question: With B1 as the binder, how does the binding [1] read?
Answer: The binding was “binds”.

B2: PLAP-Ostn fusion protein (N-terminal secreted placental alkaline phosphatase moiety linked to mouse Ostn[29-130]) (protein)
chain: DAAQPARRARRTYEAYVRSSGIIPVEEENPDFWNREAAEALGAAKKLQPAQTAAKNLIIFLGDGMGVSTVTAARILKGQKKDKLGPEIPLAMDRFPYVALSKTYNVDKHVPDSGATATAYLCGVKGNFQTIGLSAAARFNQCNTTRGNEVISVMNRAKKAGKSVGVVTTTRVQHASPAGTYAHTVNRNWYSDADVPASARQEGCQDIATQLISNMDIDVILGGGRKYMFPMGTPDPEYPDDYSQGGTRLDGKNLVQEWLAKRQGARYVWNRTELMQASLDPSVTHLMGLFEPGDMKYEIHRDSTLDPSLMEMTEAALRLLSRNPRGFFLFVEGGRIDHGHHESRAYRALTETIMFDDAIERAGQLTSEEDTLSLVTADHSHVFSFGGYPLRGSSIFGLAPGKARDRKAYTVLLYGNGPGYVLKDGARPDVTESESGSPEYRQQSAVPLDEETHAGEDVAVFARGPQAHLVHGVQEQTFIAHVMAFAACLEPYTACDLAPPAGTTDAAHPGYLDLASQEFGTASLQSPPTAREEKSATELSAKLLRLDDLVSLENDVFETKKKRSFSGFGSPLDRLSAGSVEHRGKQRKAVDHSKKRFGIPMDRIGRNRLSSSRG
Question: Which binding [2] does the source give for B2 here?
Answer: Its binding is “binds”.

Question: And the binding [3]?
Answer: The binding was “binds”.

B3: mouse amidated Ostn[107-129] synthetic C-terminal peptide (peptide)
peptide: YDHSKKRFGIPMDRIGRNRLSNSR
modifications: amidated (C-terminal amide)
Question: Which binding [4] does the source give for B3 here?
Answer: Its binding is “binds”.
